No constants are given. Whether binding was seen depends on the method and setting. In cells and extracts the contact can be indirect. Some binding calls cover weakened binding; strength is not graded here.
Columns and labels:
[1] = target: Far-upstream element (FUSE)-binding protein 1 (FUBP1), endogenous (human (endogenous in LNCaP and C4-2; the other cell lines of Figure 2I are not given)) (UniProt Q96AE4); experiment: co-IP; endogenous proteins, different cell lines; 0.3%-0.5% NP-40 lysis buffer (50 mM Tris-HCl pH 8.0, 150 mM NaCl, 1 mM DTT), primary antibody 8 h at 4°C, protein A beads
[2] = target: Far-upstream element (FUSE)-binding protein 1 (FUBP1), endogenous (human (endogenous in LNCaP and C4-2; the other cell lines of Figure 2I are not given)) (UniProt Q96AE4); experiment: co-IP; FUBP1 and PRMT5 in LNCaP and C4-2 cells with or without nanocomplex-delivered PUBLISH^WT or PUBLISH^3K peptide; the method is not named for this panel

By UniProt entry, the sequences of proteins in these tests, tags left out.
UniProt Q96AE4: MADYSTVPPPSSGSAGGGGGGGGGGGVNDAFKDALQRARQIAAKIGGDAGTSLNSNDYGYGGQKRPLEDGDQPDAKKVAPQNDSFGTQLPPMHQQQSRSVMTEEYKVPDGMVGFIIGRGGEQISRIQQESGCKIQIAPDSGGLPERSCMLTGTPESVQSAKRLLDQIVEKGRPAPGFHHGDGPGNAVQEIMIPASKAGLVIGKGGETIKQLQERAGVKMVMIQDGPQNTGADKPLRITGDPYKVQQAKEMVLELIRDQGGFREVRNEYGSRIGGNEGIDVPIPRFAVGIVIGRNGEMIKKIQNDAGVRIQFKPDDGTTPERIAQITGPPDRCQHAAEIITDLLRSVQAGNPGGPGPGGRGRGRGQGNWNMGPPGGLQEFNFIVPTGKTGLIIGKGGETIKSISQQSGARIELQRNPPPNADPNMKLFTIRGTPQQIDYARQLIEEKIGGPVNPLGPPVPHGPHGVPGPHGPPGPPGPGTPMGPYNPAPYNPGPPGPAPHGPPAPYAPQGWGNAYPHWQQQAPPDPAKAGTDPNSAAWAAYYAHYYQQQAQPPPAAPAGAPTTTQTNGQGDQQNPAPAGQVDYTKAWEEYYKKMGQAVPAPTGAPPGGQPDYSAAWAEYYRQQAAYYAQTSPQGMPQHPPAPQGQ
UniProt O14744: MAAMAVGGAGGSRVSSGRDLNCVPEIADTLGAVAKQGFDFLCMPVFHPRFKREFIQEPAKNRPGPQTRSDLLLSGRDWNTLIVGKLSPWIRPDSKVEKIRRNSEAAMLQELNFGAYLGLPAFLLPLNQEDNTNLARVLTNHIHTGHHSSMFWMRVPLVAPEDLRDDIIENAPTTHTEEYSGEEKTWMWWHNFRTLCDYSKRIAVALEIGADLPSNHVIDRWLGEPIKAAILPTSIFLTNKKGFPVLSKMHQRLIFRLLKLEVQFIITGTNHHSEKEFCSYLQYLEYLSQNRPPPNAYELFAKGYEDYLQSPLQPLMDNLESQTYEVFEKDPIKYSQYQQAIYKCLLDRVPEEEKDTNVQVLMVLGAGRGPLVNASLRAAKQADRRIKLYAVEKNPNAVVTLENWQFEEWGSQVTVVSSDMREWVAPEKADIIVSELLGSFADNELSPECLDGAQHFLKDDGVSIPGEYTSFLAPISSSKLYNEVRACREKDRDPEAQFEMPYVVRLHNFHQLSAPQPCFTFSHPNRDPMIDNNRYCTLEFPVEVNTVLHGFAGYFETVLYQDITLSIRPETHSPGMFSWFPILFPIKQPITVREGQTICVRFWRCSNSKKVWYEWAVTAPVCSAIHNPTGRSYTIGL

binding [1]: binds | binding [2]: binds
Substance: PRMT5, endogenous (from UniProt O14744 1-637) (enzyme)
